Results deposited as PubChem BioAssay AID504791 (Drosophila RNAi Screening Center, 2011).
The deposit covers about 23,000 reagents; shown is an unselected part of those that have a named target and a result. Of all reagents, 199 (0.86%) are marked active. 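Plate-scaled ratios behind the calls are not deposited; printed light signals are raw; many rows marked increased or decreased are still called inactive.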 Entries without a mark were called inactive. Not given: the direction of the score.

- Purpose: 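Genes whose knock-down strengthens or weakens small-RNA reporter silencing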 (primary screen)
- Cell system: Drosophila S2-derived reporter cells
- Reagent: long dsRNA against Drosophila genes, about 150-250 ng dsRNA per well (siRNA assay); about 80-120 ng (miRNA assay)
- Duration: about 5 days (siRNA assay); about 4 days (miRNA assay)
- Treatment: copper sulfate induction of reporters: 25 µM (siRNA assay); 200 mM stated (miRNA assay), 1-2 days before reading
- Measured: 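Per-well ratio of Renilla over firefly light, expressed relative to that plate's average ratio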
- Hit rule: 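a well was a first-pass pick when its plate-scaled ratio rose above 1.5 (siRNA assay) or 1.6 (miRNA assay), or dropped below 0.6; a gene counted only if two separate dsRNAs agreed on retest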

| target | dsRNA | miRNA reporter change | stable assay Renilla, run 1 (luminescence) | stable assay firefly, run 1 (luminescence) |
| --- | --- | --- | --- | --- |
| CG15370 | DRSC18042 | – | 4311 | 3.23e5 |
| CG15370 | DRSC23277 | – | 8138 | 4.83e5 |
| CG7742 | DRSC03066 | – | 11251 | 4.96e5 |
| CG18128 | DRSC04304 | – | 6400 | 3.48e5 |
| mRpS35 | DRSC08551 | – | 7052 | 4.27e5 |
| Rtnl1 | DRSC00851 | – | 5267 | 4.06e5 |
| Rtnl1 | DRSC02684 | – | 12408 | 1.64e5 |
| Rtnl1 | DRSC03122 | – | 13956 | 1.80e5 |
| Rtnl1 | DRSC21698 | – | 9650 | 5.42e5 |
| CG18094 | DRSC02655 | – | 6435 | 3.12e5 |
| Ino80 | DRSC14760 | – | 7230 | 4.76e5 |
| Ino80 | DRSC15333 | – | 9719 | 4.88e5 |
| Ino80 | DRSC15501 | – | 7623 | 4.12e5 |
| CG4452 | DRSC10422 | – | 7035 | 3.30e5 |
| CG12926 | DRSC06239 | – | 4483 | 3.56e5 |
| CG12926 | DRSC21930 | – | 10732 | 4.93e5 |

Looked up above.
Under “stable assay Renilla, run 1 (luminescence)”, Ino80 [DRSC14760] reads 7230
Under “stable assay firefly, run 1 (luminescence)”, CG12926 [DRSC06239] has 3.56e5
Result for Ino80 [DRSC15501] in “stable assay firefly, run 1 (luminescence)”: 4.12e5

The list goes on:
| target | dsRNA | miRNA reporter change | stable assay Renilla, run 1 (luminescence) | stable assay firefly, run 1 (luminescence) |
| --- | --- | --- | --- | --- |
| CG14088 | DRSC10092 | – | 6872 | 4.45e5 |
| MFS12 | DRSC07268 | – | 8115 | 4.98e5 |
| subdued | DRSC15137 | – | 7853 | 2.56e5 |
| CG30098 | DRSC05605 | – | 7703 | 5.49e5 |
| CG3337 | DRSC15478 | – | 4120 | 4.02e5 |
| dmt | DRSC16932 | – | 8939 | 4.51e5 |
| l(2)37Cb | DRSC02095 | – | 97974 | 1.62e6 |
| CG10654 | DRSC09767 | – | 7119 | 4.64e5 |
| ckn | DRSC06149 | reporter ratio lowered past the hit cutoff | 7801 | 4.25e5 |
| CG32450 | DRSC11546 | – | 5563 | 4.07e5 |
| CG4658 | DRSC02768 | – | 8186 | 5.12e5 |
| Strip | DRSC08194 | – | 7279 | 2.97e5 |
| Ugt50B3 | DRSC04778 | – | 5059 | 4.65e5 |
| Ugt50B3 | DRSC04779 | – | 4392 | 4.77e5 |
| Ugt50B3 | DRSC21419 | – | 8477 | 4.67e5 |
| CG8012 | DRSC10951 | – | 6590 | 4.66e5 |
| ush | DRSC00843 | reporter ratio raised past the hit cutoff (active) | 11522 | 4.02e5 |
| zip | DRSC04725 | – | 4048 | 3.24e5 |
| zip | DRSC22489 | – | 3407 | 3.03e5 |
